Measurements as given in publication doi:10.1101/2025.07.14.664640.

By UniProt entry, the sequences of proteins in these tests, tags left out. Where a name states a change or a piece, a line headed by the entry shows the natural chain unless it says otherwise. Residues count along the entry.
UniProt Q14247, residues 492-550: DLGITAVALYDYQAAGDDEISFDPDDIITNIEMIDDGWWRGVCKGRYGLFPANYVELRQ
UniProt Q53T59: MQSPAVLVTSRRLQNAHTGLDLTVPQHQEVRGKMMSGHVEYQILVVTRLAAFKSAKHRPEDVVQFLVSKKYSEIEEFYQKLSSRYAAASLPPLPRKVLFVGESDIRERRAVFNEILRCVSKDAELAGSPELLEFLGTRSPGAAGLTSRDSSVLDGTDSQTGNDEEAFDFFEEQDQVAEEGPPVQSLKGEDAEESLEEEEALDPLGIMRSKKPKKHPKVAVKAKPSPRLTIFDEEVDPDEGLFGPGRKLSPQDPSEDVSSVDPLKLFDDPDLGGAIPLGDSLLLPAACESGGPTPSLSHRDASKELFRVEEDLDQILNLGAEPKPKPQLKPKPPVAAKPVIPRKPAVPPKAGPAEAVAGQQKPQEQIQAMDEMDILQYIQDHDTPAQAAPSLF

Molecular target: GST-SH3 (SH3 domain of cortactin fused to GST) (UniProt Q14247)
Assay: pull-down

Row | Substance | binding
1 | MBP-HS1BP3 full length, PRR3.1 mutant (prolines of PRR3.1 replaced with alanine) (from UniProt Q53T59) | no binding
2 | MBP-HS1BP3 full length, PRR3.2 mutant (prolines of PRR3.2 replaced with alanine) (from UniProt Q53T59) | no binding

Results are given in words; binding and its absence hold for the method and conditions named.
